Laboratory results: PubChem BioAssay AID1259405 (NCATS, 2018)
This is one part, drawn at random, of about 50,000 deposited reagents. About 4,000 of them (8%) were called active. 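Mouse siRNA library applied to hamster cells; one well for each siRNA.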 Unmarked entries are inactive. Reagents against one gene are numbered here.

Aim: 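Knock-downs that lift recombinant protein yield in hamster ovary cells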 (primary screen)
System: Chinese hamster CHO-K1 ovary cells with stable secreted eGFP expression
Knock-down reagent: single siRNA against mouse genes, 0.8 pmol siRNA per well (2 µl of 400 nM stock)
Time to read-out: 3 days
Measured: 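Percent of the per-plate non-targeting control median for intracellular GFP per well by laser scanning cytometry and for cell viability by ATP luminescence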
Reading the numbers: GFP, % of control: higher = more GFP per well, higher productivity; viability (ATP), % of control: higher = more viable cells (more ATP)
Hit rule: 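Called active when intracellular GFP, relative to negative control, is at or above 120%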

no.	target	reagent	GFP, % of control	viability (ATP), % of control
1	Srpra (signal recognition particle receptor alpha)	1	110	80.9
2	Srpra (signal recognition particle receptor alpha)	2	84.4	82.5
3	Srpra (signal recognition particle receptor alpha)	3	55.2	52
4	Ivl (involucrin)	1	69	55.1
5	Ivl (involucrin)	2	119	85.9
6	Ivl (involucrin)	3	61.5	58.6
7	Ly6g6c (lymphocyte antigen 6 family member G6C)	1	78.1	60.8
8	Ly6g6c (lymphocyte antigen 6 family member G6C)	2	93	72.6
9	Ly6g6c (lymphocyte antigen 6 family member G6C)	3	122 (active)	64.2
10	Rpl28 (ribosomal protein L28)	1	58.7	62
11	Rpl28 (ribosomal protein L28)	2	89.6	70.5
12	Rpl28 (ribosomal protein L28)	3	27.8	25.5
13	Folh1 (folate hydrolase 1)	1	62	111
14	Folh1 (folate hydrolase 1)	2	128 (active)	76.4
15	Folh1 (folate hydrolase 1)	3	73.1	75.6
16	Trap1 (TNF receptor-associated protein 1)	1	103	113
17	Trap1 (TNF receptor-associated protein 1)	2	83.9	79.4
18	H4c8 (H4 clustered histone 8)	1	49.4	76.3
19	H4c8 (H4 clustered histone 8)	2	77.4	83.8
20	H4c8 (H4 clustered histone 8)	3	41.7	56.7
21	Spic (Spi-C transcription factor (Spi-1/PU.1 related))	1	59.6	71
22	Spic (Spi-C transcription factor (Spi-1/PU.1 related))	2	47.4	60.1
23	Spic (Spi-C transcription factor (Spi-1/PU.1 related))	3	68.1	79.4
24	Ccdc178 (coiled coil domain containing 178)	1	124 (active)	73.3
25	Ccdc178 (coiled coil domain containing 178)	2	32.5	31.9
26	Ccdc178 (coiled coil domain containing 178)	3	99.4	116
27	Asl (argininosuccinate lyase)	1	131 (active)	95.5
28	Asl (argininosuccinate lyase)	2	76	87.7
29	Asl (argininosuccinate lyase)	3	102	55.1
30	Krtap13-1 (keratin associated protein 13-1)	1	64	87.9
31	Krtap13-1 (keratin associated protein 13-1)	2	90.6	124
32	Krtap13-1 (keratin associated protein 13-1)	3	214 (active)	104
33	Or1e22 (olfactory receptor family 1 subfamily E member 22)	1	42.6	56.4
34	Or1e22 (olfactory receptor family 1 subfamily E member 22)	2	63.5	65
35	Or1e22 (olfactory receptor family 1 subfamily E member 22)	3	92.9	116
36	Gm2a (GM2 ganglioside activator protein)	1	55.7	54.3
37	Gm2a (GM2 ganglioside activator protein)	2	96.4	89.1
38	Gm2a (GM2 ganglioside activator protein)	3	74.7	92.1
39	Hepacam2 (HEPACAM family member 2)	1	122 (active)	80.8
40	Hepacam2 (HEPACAM family member 2)	2	76.1	80.8
41	Hepacam2 (HEPACAM family member 2)	3	69	46
42	Nr0b2 (nuclear receptor subfamily 0, group B, member 2)	1	157 (active)	70
43	Nr0b2 (nuclear receptor subfamily 0, group B, member 2)	2	78.9	85.9
44	Nr0b2 (nuclear receptor subfamily 0, group B, member 2)	3	76.6	71.6
45	Mfge8 (milk fat globule EGF and factor V/VIII domain containing)	1	101	101
46	Mfge8 (milk fat globule EGF and factor V/VIII domain containing)	2	114	88.3
47	Dleu7 (deleted in lymphocytic leukemia, 7)	1	81.2	89.6
48	Dleu7 (deleted in lymphocytic leukemia, 7)	2	58	65.1
49	Dleu7 (deleted in lymphocytic leukemia, 7)	3	154 (active)	156
50	Pou3f4 (POU domain, class 3, transcription factor 4)	1	118	112
51	Pou3f4 (POU domain, class 3, transcription factor 4)	2	72.1	78.8
52	Pou3f4 (POU domain, class 3, transcription factor 4)	3	88.1	73.3
53	Pdgfrb (platelet derived growth factor receptor, beta polypeptide)	1	75.5	72.4
54	Snx14 (sorting nexin 14)	1	127 (active)	70.2
55	Snx14 (sorting nexin 14)	2	45.5	65
56	Snx14 (sorting nexin 14)	3	70.5	54.1
57	Sptssb (serine palmitoyltransferase, small subunit B)	1	64.9	63.6
58	Sptssb (serine palmitoyltransferase, small subunit B)	2	63.1	66.3
59	Sptssb (serine palmitoyltransferase, small subunit B)	3	69	39.5
